{"source": "paper PMC6968488", "about": "“In vitro and in vivo evaluation of didymin cyclodextrin inclusion complexes: characterization and chemosensitization activity” (Drug Delivery, 2019)", "tested_on": "MCF-7 cells", "test": "MTT cytotoxicity / chemosensitivity assay, sensitive tumor cells", "format": "cell-based", "details": "Homo sapiens, MCF7; MCF-7, free DOX", "protocol": "The cytotoxicity of didymin on various cell lines was examined by MTT assay as previously reported (Yao et al., [2019]). The didymin solution was prepared by dissolving in DMSO at different concentrations and diluted with the fresh medium right before the treatment. The didymin inclusion complex was dispersed in the sterilized water and then diluted with the fresh medium before treatment. Experiments involving healthy cells (HUVEC, H9C2, and PC12) by culturing 100 μL cell suspension (5 × 10^4 cell/mL) in 96 well plates. After 24 h incubation, the didymin or didymin inclusion complexes contained medium was used to replace the overnight medium and cultured for 48 h, respectively. After that, the MTT solution at the concentration of 5 mg/mL was added to each well. After 4 h incubation, the medium was removed, and the MTT formazan was dissolved by DMSO. Then the DMSO solution is measured using a microplate reader with the absorbance wavelength at 570 nm. The untreated cells were used as control. The cell viability (%) was calculated as follows, cell viability (%) = Asample/Acontrol ×100.\nThe MCF-7 and MCF-7/ADR cells cytotoxicity of the combination of didymin and doxorubicin were evaluated by MTT assay, as mentioned above."}
{"smiles": "COc1cccc2c1C(=O)c1c(O)c3c(c(O)c1C2=O)C[C@@](O)(C(=O)CO)C[C@@H]3O[C@H]1C[C@H](N)[C@H](O)[C@H](C)O1", "note": "[DOX, doxorubicin, reference compound]", "values": [{"measurement": "IC50", "value": "2260 ± 470", "unit": "nM"}]}
